From PMC8072408
No constants are given. Whether binding was seen depends on the method and setting. For some of these results: In cells and extracts the contact can be indirect. Some entries that bind do so weakly or less than the wild type. For some of these results: Where a sequence is shown, tags or fusion partners need not be part of it.

What was measured:
3XFLAG-TMEM41B [1] = target: T1, 3XFLAG-TMEM41B (UniProt Q5BJD5); assay: pull-down; lysate of Expi293F cells overexpressing ATG2A passed over 3XFLAG-TMEM41B or 3XFLAG-VMP1 immobilized on anti-FLAG resin; only the target purified
T1 sequence: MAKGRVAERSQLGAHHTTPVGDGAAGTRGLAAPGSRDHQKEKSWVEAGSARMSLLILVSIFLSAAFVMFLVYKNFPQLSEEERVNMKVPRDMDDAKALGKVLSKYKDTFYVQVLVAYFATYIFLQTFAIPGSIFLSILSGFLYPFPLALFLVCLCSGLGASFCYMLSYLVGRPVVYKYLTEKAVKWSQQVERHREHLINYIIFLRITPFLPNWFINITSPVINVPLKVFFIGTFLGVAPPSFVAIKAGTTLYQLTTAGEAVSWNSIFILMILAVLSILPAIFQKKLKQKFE

3XFLAG-VMP1 [2] = target: T2, 3XFLAG-VMP1 (UniProt Q96GC9); assay: as above
T2 sequence: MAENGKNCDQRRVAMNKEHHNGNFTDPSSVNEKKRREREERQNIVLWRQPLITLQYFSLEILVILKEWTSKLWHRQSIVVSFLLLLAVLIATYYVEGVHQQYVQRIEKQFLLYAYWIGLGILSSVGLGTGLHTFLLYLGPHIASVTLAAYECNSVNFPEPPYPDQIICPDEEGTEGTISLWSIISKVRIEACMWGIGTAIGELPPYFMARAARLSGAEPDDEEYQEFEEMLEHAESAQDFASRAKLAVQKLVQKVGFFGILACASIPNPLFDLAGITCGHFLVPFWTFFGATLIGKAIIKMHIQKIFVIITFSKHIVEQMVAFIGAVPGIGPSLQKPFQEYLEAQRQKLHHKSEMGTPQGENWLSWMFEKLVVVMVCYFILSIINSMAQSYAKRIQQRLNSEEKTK

[3] = target: T3, TMEM41B/VMP1 (1:1 mixture reconstituted together into liposomes) (UniProt Q5BJD5); assay: liposome flotation (density gradient centrifugation); mini-ATG2A incubated with protein-free liposomes or liposomes reconstituted with ATG9A, TMEM41B, VMP1 or TMEM41B/VMP1; liposomes and associated mini-ATG2A separated from unbound protein by density gradient centrifugation; both purified
T3 sequence 1: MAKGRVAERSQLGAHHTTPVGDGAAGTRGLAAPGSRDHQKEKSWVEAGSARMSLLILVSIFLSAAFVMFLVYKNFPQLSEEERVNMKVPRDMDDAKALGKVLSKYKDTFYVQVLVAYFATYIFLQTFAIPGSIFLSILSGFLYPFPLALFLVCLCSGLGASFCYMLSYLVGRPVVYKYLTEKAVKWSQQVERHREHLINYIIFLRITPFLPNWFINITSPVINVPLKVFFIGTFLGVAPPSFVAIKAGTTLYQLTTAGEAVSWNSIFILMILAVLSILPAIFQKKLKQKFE
T3 sequence 2: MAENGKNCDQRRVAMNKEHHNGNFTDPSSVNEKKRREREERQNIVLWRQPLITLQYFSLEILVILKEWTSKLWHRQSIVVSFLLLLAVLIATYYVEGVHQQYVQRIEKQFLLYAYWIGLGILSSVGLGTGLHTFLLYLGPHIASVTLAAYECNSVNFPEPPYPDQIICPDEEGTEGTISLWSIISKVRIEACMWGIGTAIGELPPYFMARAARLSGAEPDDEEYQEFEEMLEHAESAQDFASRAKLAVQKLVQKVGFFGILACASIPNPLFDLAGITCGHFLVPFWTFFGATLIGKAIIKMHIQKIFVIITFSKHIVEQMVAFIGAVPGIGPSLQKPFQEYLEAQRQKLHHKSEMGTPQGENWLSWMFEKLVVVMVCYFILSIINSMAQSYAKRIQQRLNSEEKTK

3XFLAG-TMEM41B [4] = target: T1, 3XFLAG-TMEM41B; assay: as above
3XFLAG-VMP1 [5] = target: T2, 3XFLAG-VMP1; assay: as above
3XFLAG-TMEM41B [6] = target: T1, 3XFLAG-TMEM41B; assay: pull-down; mini-ATG2A in interaction experiments similar to the ones described for the full-length protein (3XFLAG-tagged ATG9A, TMEM41B or VMP1 as bait)
3XFLAG-VMP1 [7] = target: T2, 3XFLAG-VMP1; assay: as above

Measured: binding

ATG2A (untagged, full-length) (from UniProt Q2TAZ0 1-1938)
binds: 3XFLAG-TMEM41B [1] | 3XFLAG-VMP1 [2]

B1: mini-ATG2A (residues 1 to 345) (domain or fragment, UniProt Q2TAZ0 1-345)
chain: MSRWLWPWSNCVKERVCRYLLHHYLGHFFQEHLSLDQLSLDLYKGSVALRDIHLEIWSVNEVLESMESPLELVEGFVGSIEVAVPWAALLTDHCTVRVSGLQLTLQPRRGPAPGAADSQSWASCMTTSLQLAQECLRDGLPEPSEPPQPLEGLEMFAQTIETVLRRIKVTFLDTVVRVEHSPGDGERGVAVEVRVQRLEYCDEAVRDPSQAPPVDVHQPPAFLHKLLQLAGVRLHYEELPAQEEPPEPPLQIGSCSGYMELMVKLKQNEAFPGPKLEVAGQLGSLHLLLTPRQLQQLQELLSAVSLTDHEGLADKLNKSRPLGAEDLWLIEQDLNQQLQAGAVAE
not listed: 3XFLAG-TMEM41B [1] | 3XFLAG-VMP1 [2]
binds: all other assays above
